The text below walks through data of patent US20100167390.

Amino acid sequences for entries named in this document (tags omitted).
UniProt Q04206, whole entry: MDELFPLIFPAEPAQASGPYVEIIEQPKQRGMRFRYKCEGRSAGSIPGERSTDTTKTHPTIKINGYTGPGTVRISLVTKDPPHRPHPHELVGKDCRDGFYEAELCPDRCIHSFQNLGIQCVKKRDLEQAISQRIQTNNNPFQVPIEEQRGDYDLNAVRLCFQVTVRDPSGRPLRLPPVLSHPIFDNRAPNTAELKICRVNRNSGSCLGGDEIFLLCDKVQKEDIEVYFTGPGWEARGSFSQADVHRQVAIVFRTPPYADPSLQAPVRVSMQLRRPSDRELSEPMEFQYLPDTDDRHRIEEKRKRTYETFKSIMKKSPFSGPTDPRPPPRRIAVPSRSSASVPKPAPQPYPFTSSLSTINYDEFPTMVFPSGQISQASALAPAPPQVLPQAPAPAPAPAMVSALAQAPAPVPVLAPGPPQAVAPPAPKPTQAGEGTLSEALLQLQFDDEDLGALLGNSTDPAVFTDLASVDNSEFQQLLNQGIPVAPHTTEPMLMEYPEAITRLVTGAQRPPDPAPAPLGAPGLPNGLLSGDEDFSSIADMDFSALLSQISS

Where cells or extracts were used, other partners may take part.

This series has as its target NF-kB p65 (RelA) (UniProt Q04206). The series is described as follows: competition with a labelled probe. The following applies: protein in an extract.

“GGCTGGGATTTCCCGCGG (double strand) [FSODN30]”: where the note is “PS only in flanks and flank-core bonds, variant of SODN30”, the IC50 (in general, the concentration that gives 50% inhibition) is > 100 nM.
As for “CGCAGGGATTTCCCGCG (double strand) [ODN16]”, for the setting “no phosphorothioate, variant of SODN16”, the IC50 was > 100 nM.
Regarding GGAGGGATTTCCCGGG (double strand) [ODN9], where the note is “no phosphorothioate, variant of SODN9”, the IC50 is > 100 nM.
Consider “GGAGGGATTTCCCGGG (double strand) [FSODN9]”, for which, where the note is “PS only in flanks and flank-core bonds, variant of SODN9”, the IC50 is > 100 nM.
CGCGGGATTTCCCAGC (double strand) [ODN7]: the 50% inhibitory concentration (IC50) (no phosphorothioate, variant of SODN7) is > 100 nM.
Take “GGCTGGGATTTCCCGCGG (double strand) [ODN30]”: the concentration for half-maximal inhibition (IC50) (no phosphorothioate, variant of SODN30) was > 100 nM.
“CCCTGGGATTTCCCGCC (double strand) [FSODN17]”: for the setting “PS only in flanks and flank-core bonds, variant of SODN17”, the half-maximal inhibitory concentration (IC50) is > 100 nM.
With “CGCGGGATTTCCCAGC (double strand) [FSODN7]”, the half-maximal inhibitory concentration (IC50) (PS only in flanks and flank-core bonds (CsGsCsGGGATTTCCCsAsGsC), variant of SODN7) is > 100 nM.
Take “CCCTGGGATTTCCCGCC (double strand) [ODN17]”: the half-maximal inhibitory concentration (IC50) (no phosphorothioate, variant of SODN17) was > 100 nM.
As for “CCCGGGATTTCCCACC (double strand) [FSODN8]”, for the setting “PS only in flanks and flank-core bonds, variant of SODN8”, the IC50 is > 100 nM.
Consider CCCGGGATTTCCCACC (double strand) [ODN8], for which the half-inhibitory concentration (IC50) (no phosphorothioate, variant of SODN8) is > 100 nM.
